Literature values as cited in US11971405B2, “Nanosensors and methods of making and using nanosensors” (Board of Regents, The University of Texas System, priority 2017, dated 2024).

Tested on: PC9 (mutant, Sigma-Aldrich) cell line
Conditions: PC9 cell line (mutant EGFR)

Compound: COc1cc2ncnc(Nc3ccc(F)c(Cl)c3)c2cc1OCCCN1CCOCC1 [Gefitinib]
- IC50: 4 nM
